Record: PubChem BioAssay AID1159578 (Peter MacCallum Cancer Centre, 2015)
Purpose: 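Genome-wide hunt for genes controlling movement of lymphatic endothelial cells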 (primary screen). System: human lymphatic endothelial cells. Reagent: siRNA pool against human genes, 40 nM. Timing: 48 h after transfection. Read-out: 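Cells stained with dye and imaged after a scratch; covered wound area and nuclei counted, duplicates averaged, migration set against mock wells and turned into a robust z-score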. Scale: migration robust z-score: higher = faster migration into the scratch; migration relative to mock: higher = more scratch area covered than mock; nuclei per well: higher = more cells in the well. Call rule: 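Pools averaging fewer than 3300 nuclei are never called; remaining pools count as changed when migration robust z lies outside -2 to 2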. Calls: active = migration changed; inactive = no migration change, or too few cells.
The deposit covers about 18,000 reagents; this is an unselected part. Of all reagents, about 1,030 (5.7%) were called active. 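Inactive calls also include pools with fewer than 3300 nuclei, whose migration was not assessed.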 Raw values are not corrected between plates. A number with no mark means an inactive call.

Gene | migration robust z-score | migration class with cell-count check | migration relative to mock | nuclei per well, duplicate mean
SLC39A12 | -1.19 | migration z between -2 and 2; enough cells | 0.57 | 3687
RPS5 | -1.27 | migration z between -2 and 2; enough cells | 0.55 | 4302
ALG5 | -0.6 | migration z between -2 and 2; enough cells | 0.69 | 5614
GOLGA3 | 0.13 | migration z between -2 and 2; enough cells | 0.92 | 5659
LHX5 | 1.46 | migration z between -2 and 2; enough cells | 1.08 | 6668
HYOU1 | -1.9 | migration z between -2 and 2; enough cells | 0.44 | 3944
EGR1 | -2.05 (active) | migration z below -2; enough cells | 0.41 | 4465
NPHS2 | -0.93 | migration z between -2 and 2; enough cells | 0.62 | 6620
ALDH7A1 | 0.98 | migration z between -2 and 2; enough cells | 1 | 5752
TYW2 | 1.27 | migration z between -2 and 2; enough cells | 1.21 | 6810
RPP40 | -1.53 | migration z between -2 and 2; enough cells | 0.48 | 5746
SLC5A10 | -0.66 | migration z between -2 and 2; enough cells | 0.72 | 6924
SNAI2 | -0.86 | migration z between -2 and 2; enough cells | 0.66 | 5227
ALX1 | -1.38 | migration z between -2 and 2; enough cells | 0.54 | 4328
ZNF106 | 0.42 | migration z between -2 and 2; enough cells | 0.99 | 6072
MYLK2 | 0.26 | migration z between -2 and 2; enough cells | 0.86 | 4800
AMOT | -0.64 | migration z between -2 and 2; enough cells | 0.74 | 5551
MVK | -0.2 | migration z between -2 and 2; enough cells | 0.76 | 6228
AGO4 | -0.39 | migration z between -2 and 2; enough cells | 0.73 | 5626
ISCA2 | 0.76 | migration z between -2 and 2; enough cells | 1.08 | 5812
EGFL8 | -0.06 | migration z between -2 and 2; enough cells | 0.87 | 5062
ARK2C | 0.62 | migration z between -2 and 2; enough cells | 0.92 | 6302
TAF1 | -0.68 | migration z between -2 and 2; enough cells | 0.68 | 6116
